Reference: PubChem BioAssay AID743454 (Peter MacCallum Cancer Centre, 2014)

- Purpose: 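Genes whose loss kills vorinostat-resistant colon cancer cells under vorinostat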 (primary screen)
- Cells: human HCT116-VR colon cancer cells, selected for vorinostat resistance
- Reagent: siRNA pool against human genes, 40 nM siRNA pool
- Time to read-out: vorinostat for 24 h, read-out about 72 h after transfection
- Challenge: vorinostat at 2.5 µM final
- Measurement: 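Cell viability by CellTiter-Fluor and caspase 3/7 activity by luminescence, each scaled to mock wells per plate, duplicates averaged, then robust z-scored over all plates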
- Direction: viability robust z-score: higher = more viable cells than screen typical; caspase robust z-score: higher = more caspase 3/7 activity than screen typical
- Active means: 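a knock-down is a hit when classed RV1 or RV2 for lowered viability, or CA1 or CA2 for caspase activation; those lethal without drug were dropped; hits were retested singly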
This is a random part of about 18,000 reagents. 450 of them (2.5%) were called active. 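Single biological run; no consistent viability z cut-off exists, so the class columns, not z-scores, define the calls.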 A number with no mark means an inactive call.

target | viability hit class | caspase hit class | viability robust z-score | caspase robust z-score
ULK3 (GeneID 25989) | no change | no change | 0.9 | -0.16
XAGE2 (GeneID 9502) | no change | no change | -2.09 | -1.42
TERT (GeneID 7015) | no change | no change | 0.21 | -0.14
FGFBP1 (GeneID 9982) | no change | no change | 0.34 | 0.29
GLCE (GeneID 26035) | no change | no change | 0.02 | 1.34
PPP1R18 (GeneID 170954) | no change | no change | 0.67 | 0.63
HDLBP (GeneID 3069) | no change | no change | -0.18 | -0.38
ATL1 (GeneID 51062) | no change | no change | 0.32 | 0.6
PRPSAP2 (GeneID 5636) | no change | no change | 0.34 | -0.44
USPL1 (GeneID 10208) | no change | no change | -1.99 | -0.08
ZNF507 (GeneID 22847) | no change | no change | 0.24 | -0.04
CHRNA3 (GeneID 1136) | no change | no change | -0.11 | 0.26
PVR (GeneID 5817) | no change | no change | -0.02 | -1.04
CEP20 (GeneID 123811) | no change | no change | -1.02 | 0.16
RAD51 (GeneID 5888) | no change | no change | -2.16 | 0.46
TRAT1 (GeneID 50852) | no change | no change | -0.03 | -0.32
RBP2 (GeneID 5948) | no change | no change | 0.81 | 1.04
KBTBD7 (GeneID 84078) | no change | no change | 0.02 | 2.62
IQCE (GeneID 23288) | no change | no change | 0.78 | 1.46
RPS6 (GeneID 6194) | no change | no change | -3.98 | -1.62
DKKL1 (GeneID 27120) | no change | no change | 0.36 | 0
SREK1IP1 (GeneID 285672) | no change | no change | 1.25 | 0.38
SLC6A9 (GeneID 6536) | no change | no change | -0.26 | 1.31
CDH16 (GeneID 1014) | no change | no change | -1.73 | 3.46
CMTM1 (GeneID 113540) | no change (active) | CA1 (caspase activation) | -0.64 | 5.31
PFN4 (GeneID 375189) | no change | no change | -0.5 | 0.87
TRIM37 (GeneID 4591) | no change | no change | 1.24 | 0.07
LMF1 (GeneID 64788) | no change | no change | -1.2 | -0.27
USP6 (GeneID 9098) | no change | no change | -0.07 | 1.52
MYOG (GeneID 4656) | no change | no change | -0.53 | 0.58
PCDHGA4 (GeneID 56111) | no change | no change | 0.65 | -0.53
ST3GAL6 (GeneID 10402) | no change | no change | 0.75 | -1.02
OR5M9 (GeneID 390162) | no change | no change | -1.36 | 2.27
NODAL (GeneID 4838) | no change | no change | -1.77 | 3.7
OR11A1 (GeneID 26531) | no change | no change | 0.31 | -0.29
TMEM200C (GeneID 645369) | no change | no change | -0.45 | 3.3
PRSS12 (GeneID 8492) | no change | no change | 1.43 | -0.29
TNFRSF1B (GeneID 7133) | no change | no change | -0.41 | 0.54
PAK1IP1 (GeneID 55003) | no change | no change | -0.96 | 0.38

6 consecutive records already listed:
target | viability hit class | caspase hit class | viability robust z-score | caspase robust z-score
LMF1 (GeneID 64788) | no change | no change | -1.2 | -0.27
USP6 (GeneID 9098) | no change | no change | -0.07 | 1.52
MYOG (GeneID 4656) | no change | no change | -0.53 | 0.58
PCDHGA4 (GeneID 56111) | no change | no change | 0.65 | -0.53
ST3GAL6 (GeneID 10402) | no change | no change | 0.75 | -1.02
OR5M9 (GeneID 390162) | no change | no change | -1.36 | 2.27
